From PubChem BioAssay AID504648 (National Center for Advancing Translational Sciences (NCATS), 2011)
Several values for one entry are separate records, joined by “and”; a condition that tells them apart may be missing. Equal entries are not always repeated. In all, about 390,000 compounds went through this assay and about 610 (0.16%) were called active. The inconclusive results got no clear call from the source; some entries with a clear call stand among them for comparison. The call rests on the fitted dose curve; in most records, active means well fitted inhibition curve with a large enough effect; inconclusive means small, poorly fitted or top-dose-only effect, or effect the other way, or another doubt; inactive means no such curve, though single readings can be large or run the other way. Where the call is inconclusive, the potency comes from a doubtful curve fit.

Experiment: Nrf2 qHTS screen for inhibitors: counterscreen for cytotoxicity
Conditions: A549 ARE-Fluc cells, CellTiter-Fluor viability, 18-24 h; activity change, negative = cytotoxicity: at 46 µM (top of the series)
Summary of the method: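 Cytotoxicity counterscreen: CellTiter-Fluor fluorescence was measured in A549 ARE_Fluc cells after 18-24 h of compound exposure in a concentration series. The subsequent BugLite luminescent read reports ARE-luciferase activity.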
On the % scale 0 is the no-effect control and ±100 the full control effect; potency means the concentration at half of the fitted maximal effect.

Row | Structure (SMILES) | Potency | activity change, negative = cytotoxicity
1 | Cc1cccc(CS(=O)(=O)c2ncc(Cl)c(C(=O)Nc3nnc(C(C)C)s3)n2)c1 | inconclusive: 29.1 µM [falling, single point] and inconclusive: 25.9 µM [falling, single point] | 
2 | COc1ccc(CCNC(=O)C(=O)NCC(c2ccco2)S(=O)(=O)c2ccc(C)cc2)cc1 (centres undefined) |  | inactive: 0.785%
3 | COc1ccc(C(=O)NNC(=O)c2cccc(F)c2)cc1 | inconclusive: 32.6 µM [activator, partial curve, poor fit] | 
4 | CC(C)n1c(O)c(N=NC(=O)c2ccccc2NS(=O)(=O)c2cccs2)c2ccccc21 | inconclusive: 32.6 µM [falling, partial curve, poor fit] | 
5 | O=C(O)c1ccc2c(c1)C(=O)N([C@H](Cc1ccc3ccccc3c1)C(=O)O)C2=O |  | inactive: 1.94%
6 | Cn1cc(CN2CCN(Cc3ccccc3)C(CCO)C2)c(-c2ccccc2)n1 (centres undefined) | inconclusive: 23.1 µM [activator, partial curve, poor fit] | 
7 | Cc1ccc(S(=O)(=O)N2CCN(c3ncnc4sccc34)CC2)cc1 |  | inactive: -7.67%
8 | C=CCn1cccc(/C=C/C(=O)c2ccc(C(C)(C)C)cc2)c1=S | inconclusive: 25.9 µM [falling, single point] | 
9 | Cc1ccc2c(c1)N(CC(=O)N1CCC(O)CC1)C(=O)CO2 | inconclusive: 6.51 µM [activator, partial curve, poor fit] | 
10 | CC(Oc1ccc(Br)cc1)C(=O)NC1CCCCCC1 (centres undefined) | inconclusive: 25.9 µM [activator, partial curve, poor fit] | 
11 | O=C1C(C2=NC(C(=O)O)C3C(=O)N(c4ccccc4)C(=O)C23)=C(O)c2ccccc21 (centres undefined) | inconclusive: 16.4 µM [activator, partial curve, poor fit] | 
12 | Nc1nc(-n2cnnc2)nn1-c1ccccc1 | inconclusive: 6.51 µM [activator, single point] | 
13 | CN(C)CC(O)COc1cccc(OCC(O)CN(C)C)c1 (centres undefined) |  | inactive: -3.48%
14 | CCN1CCN(c2nc3ccccc3n3cnnc23)CC1 | inconclusive: 11.6 µM [falling, partial curve, poor fit] | 
15 | COc1ccccc1CNC(=O)Cn1c(=O)nc(-c2ccccc2F)c2cc(Cl)ccc21 | inconclusive: 29.1 µM [falling, single point] | 
16 | COc1cc(OC)cc(C(=O)Nc2nc(-c3ccccc3)c(-c3ccccc3)o2)c1 | inconclusive: 16.4 µM [falling, partial curve, poor fit] | 
17 | CCOC(=O)C1CCN(CC(O)COCc2ccc3c(c2)OCO3)CC1 (centres undefined) | inconclusive: 20.6 µM [activator, partial curve, poor fit] | 
18 | CC1CCCC(NC(=O)CNC(=S)N(Cc2ccccc2)Cc2cccs2)C1C (centres undefined) | inconclusive: 29.1 µM [falling, single point] | 
19 | CCCC(=O)NNc1c2ccccc2nc2ccccc12 |  | inactive: -8.96%
20 | O=[N+]([O-])c1c(NCCO)cc(N2CCCCCC2)c2nonc12 | inconclusive: 10.3 µM [falling, partial curve, poor fit] | 

Row | Structure (SMILES) | Potency | activity change, negative = cytotoxicity
21 | CCCn1nc(C(=O)Nc2cc(S(=O)(=O)Nc3ccc(OC)cc3)ccc2O)c2ccccc2c1=O |  | inactive: 1.18%
22 | COc1ccc(NC(=O)C2CCN(S(=O)(=O)c3ccc4c(c3)CCCC(=O)N4)CC2)cc1OC |  | inactive: 14.4%
23 | COc1ccc(-c2cc(C)no2)cc1S(=O)(=O)Nc1ccccc1 |  | inactive: -14.4%
24 | COC(=O)C1=C(C)n2nnnc2NC1c1cc2ccccc2o1 (centres undefined) | inconclusive: 1.46 µM [falling, partial curve, poor fit] | 
25 | CCC(C)(C)NC(=O)C(c1ccc(OC)cc1)N(Cc1cccs1)C(=O)CCC(=O)Nc1cc(C)on1 (centres undefined) |  | inactive: -14.2%
26 | O=[N+]([O-])c1ccc(NNC(=S)Nc2ccccc2)cc1 | inconclusive: 12.6 µM [falling, partial curve, poor fit] | 
27 | CC(C)(C)C(=O)NC(c1ccccc1)c1c(O)ccc2ccccc12 (centres undefined) | inconclusive: 25.9 µM [falling, single point] | 
28 | CC(=O)OC[C@H]1O[C@@H](Oc2cc3ccc(=O)oc3cc2OC(C)=O)[C@H](OC(C)=O)[C@@H](OC(C)=O)[C@@H]1OC(C)=O | inconclusive: 18.4 µM [activator, single point] | 
29 | O=C(NCc1ccccc1F)c1sc2ncccc2c1-n1cccc1 |  | inactive: 0.881%
30 | Cc1cccc(NC(=O)CN2C(=O)C(c3ccccc3)=NC23CCC(C)CC3)c1 (centres undefined) | inconclusive: 29.1 µM [falling, single point] | 
31 | CN(C(=O)c1ccccc1C(=O)OCC(=O)c1ccc(Br)cc1)c1ccccc1 | inconclusive: 23.1 µM [falling, partial curve, poor fit] | 
32 | CCOC(=O)c1ccc(NC(=O)c2ccc(CN3CCOCC3)cc2)cc1 | inconclusive: 23.1 µM [falling, partial curve, poor fit] | 
33 | CN(C(=O)CN1CCC(NC(=O)C2CCCCC2)CC1)C1CCCCC1 | inconclusive: 25.9 µM [activator, partial curve, poor fit] | 
34 | Fc1ccc(Nc2nc(Oc3ccccc3F)nc(N3CCCC3)n2)cc1 | inconclusive: 20.6 µM [falling, single point] | 
35 | Cc1cc(C)c(C)c(OCCCCN(C)Cc2ccccc2)c1 | inconclusive: 23.1 µM [falling, partial curve, poor fit] | 
36 | CCOC(=O)N1CCN(C(=O)C2CCN(c3ncnc4c3sc3cccc(F)c34)CC2)CC1 | inconclusive: 29.1 µM [falling, partial curve, poor fit] | 
37 | Cc1ccccc1Nc1nn2c(=O)c3ccc(C(=O)NCc4ccccc4)cc3nc2s1 | inconclusive: 16.4 µM [falling, partial curve, poor fit] | 
38 | CCOc1cc(OCC)cc(C(=O)Nc2cccc(-c3nc4ccccc4[nH]3)c2)c1 | inconclusive: 29.1 µM [falling, partial curve, poor fit] | 
39 | Cc1cc(C)c2c(=O)cc(C(F)(F)F)oc2n1 | inconclusive: 7.31 µM [activator, partial curve, poor fit] | 

Entries of single compounds, looked up by structure.
CCCC(=O)NNc1c2ccccc2nc2ccccc12 in the list: activity change, negative = cytotoxicity: inactive: -8.96%
O=C(O)c1ccc2c(c1)C(=O)N([C@H](Cc1ccc3ccccc3c1)C(=O)O)C2=O in the list: activity change, negative = cytotoxicity: inactive: 1.94%
